From PubChem BioAssay AID624291 (National Center for Advancing Translational Sciences (NCATS), 2012)
Among all 350,000 compounds or so, about 220 (0.063%) were called active. The inconclusive results got no clear call from the source; some entries with a clear call stand among them for comparison. Calls follow the shape of the dose curve; as a rule, active = well fitted activation curve with a large enough effect; inconclusive = small, poorly fitted or top-dose-only effect; inactive = no such curve, though single readings can be large or run the other way. Where the call is inconclusive, the potency comes from a doubtful curve fit.

Test: qHTS for Activators of Integrin-Mediated Alleviation for Muscular Dystrophy; also: nearly all actives have a fitted effect of over 60% in size;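 as to activation: 100% = response of the positive control SU9516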
Conditions: alpha7betagal myoblasts, beta-gal FDG fluorescence, 48 h; activation: at 38.3 µM (top of the series)
How it was run: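 Alpha7betagal+/- myoblasts (passage 13) were plated 16-24 hr, then exposed to compounds (1:260 dilution of DMSO stock) for 48 hours at 37C. After MPER lysis, β-galactosidase reporter activity was read as FDG fluorescence (ex 480/em 540) after 30 minutes.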
Potency is read from the fitted curve at half-maximal effect.

SMILES	Potency	activation
Fc1ccccc1N1CCN(Cc2cnc(Cl)s2)CC1	inactive	
O=C1C[C@H]2[C@H](CO)[C@@H](OC(=O)c3ccc(-c4ccccc4)cc3)C[C@H]2O1	inconclusive: 0.891 µM [activator, partial curve, poor fit]	
Cc1ccc(Nc2ncnc(N)n2)cc1	inconclusive: 4.47 µM [activator, partial curve, poor fit]	
Cc1cc(C(=O)CN2C(=O)NC3(CCCCC3C)C2=O)c(C)n1Cc1cccs1 (stereo unspecified)	inactive	
C/C(=N/Nc1ncc(C(F)(F)F)cc1Cl)c1ccncc1	inconclusive: 5.01 µM [activator, single point]	
O=C(N/N=C/c1ccc(N2CCCCC2)o1)c1ccccc1[N+](=O)[O-]	inactive	
CNC(=O)c1ccccc1NC(=O)c1cccc(S(=O)(=O)N2CCCCC2)c1	inconclusive: 3.98 µM [activator, full curve, poor fit]	
CCc1ccccc1NC(=O)c1cc(C)no1	inconclusive: 10 µM [activator, single point]	
CCC(C)C(=O)Nc1nnc(SCC(=O)Nc2ccccc2F)s1 (stereo unspecified)	inconclusive: 7.94 µM [activator, partial curve, poor fit]	
C/C(=N/Nc1nc(-c2ccccc2)c(CC(=O)O)s1)c1ccccc1	inconclusive: 1.12 µM [activator, single point]	
CCCCN(c1ccccc1)S(=O)(=O)c1cccc(C(=O)Nc2c(C)n(C)n(-c3ccccc3)c2=O)c1	inactive	
CSc1ncccc1C(=O)NC(C)CCc1ccccc1 (stereo unspecified)	inconclusive: 5.01 µM [activator, single point]	
CCCn1cc(S(=O)(=O)c2ccc(C)cc2)c(=O)c2cc(OC)ccc21	inconclusive: 7.94 µM [activator, partial curve, poor fit]	
O=C(NCc1ccccc1Cl)c1cnc2n(c1=O)CCS2	inactive	
Clc1ccccc1-c1nc2ccccc2[nH]1	inactive	
CN(CC1CCCN(CCc2cccc(C(F)(F)F)c2)C1)C(=O)c1cc2ccccc2o1 (stereo unspecified)	inactive	
Cc1cc(C)n(CC(=O)c2ccc(Cl)cc2)n1	inactive	
Cc1ccccc1-c1nnc(SCC(=O)NC2CCS(=O)(=O)C2)n1C (stereo unspecified)	inconclusive: 0.316 µM [activator, full curve, poor fit]	
Cc1ccc(NS(=O)(=O)c2ccc(C(=O)OCC(=O)Nc3cc(C)on3)cc2)cc1	inconclusive: 3.55 µM [activator, single point]	
Cc1ccccc1-n1nnnc1SCC(=O)N(C)C1CCS(=O)(=O)C1 (stereo unspecified)	inconclusive: 10 µM [activator, partial curve, poor fit]	
CC(C)(C)c1cc(C(=O)N/N=C/c2cc3c(cc2Br)OCO3)n[nH]1	inactive	
CC(C)OCCCn1c(=S)[nH]c2cc3c(cc2c1=O)OCO3	inactive	
CCOC(=O)C1(CCCc2ccccc2)CCN(C(=O)Cn2nc(C)nc2C)CC1	inconclusive: 22.4 µM [activator, single point]	
O=C(Cn1ncc2c(=O)oc3ccccc3c21)NCCN1CCN(c2ccccc2F)CC1	inactive	

SMILES	Potency	activation
CCOc1ncccc1C(=O)OCC(=O)Nc1ccc(C(C)C)cc1	inconclusive: 3.55 µM [activator, partial curve, poor fit]	
Cc1ccc(S(=O)(=O)NC(=O)Nc2ccc(OC(F)F)cc2)cc1	inconclusive: 22.4 µM [activator, single point]	
CCOC(=O)c1csc(Nc2nc3ccc(F)cc3s2)n1	inactive	
CCN(CC)CCCNc1nc(N)c([N+](=O)[O-])c(NCCO)n1	inconclusive: 2.24 µM [activator, single point]	
CCn1c(CSc2ncn[nH]2)nc2cc(C(=O)O)ccc21	inconclusive: 3.16 µM [activator, single point]	
COC(=O)c1ccc2nc(NC(=O)C3CCCCC3)sc2c1	inconclusive: 5.01 µM [activator, single point]	
CC(C)(C)NC(=O)C(c1cccs1)N(C(=O)C(=O)NC1CCCC1)c1ccccc1F (stereo unspecified)	inconclusive: 20 µM [activator, single point]	
CN(C)c1ccc(CN(C(=O)c2cc3ccccc3oc2=O)C2CCS(=O)(=O)C2)cc1 (stereo unspecified)	inconclusive: 3.55 µM [activator, partial curve, poor fit]	
O=[N+]([O-])c1cccc(/C=N/N=C\c2ccccc2)c1	inconclusive: 0.891 µM [activator, full curve, poor fit]	
CSc1ccc(Cl)c(C(=O)Nc2nccs2)c1	inconclusive: 11.2 µM [activator, partial curve, poor fit]	
CSc1cccc(CN2CCN(CCC(C)C)C(CCO)C2)c1 (stereo unspecified)	inactive	
COc1ccc(C(=O)NCCNc2nc3cc(C)c(C)cc3cc2C)cc1	inconclusive: 0.282 µM [activator, partial curve, poor fit]	
COC(=O)CCc1c[nH]c2ccc([N+](=O)[O-])cc12	inconclusive: 3.55 µM [activator, single point]	
CCN(CC)c1nc(Oc2ccc(C(=O)NN)cc2)nc(Oc2ccc(C(=O)NN)cc2)n1	inconclusive: 28.2 µM [activator, single point]	
CC(C)=NNC(=O)C1=NNC(=O)C1	inconclusive: 5.01 µM [activator, single point]	
Cc1cccc(N(CC(=O)NC(C)C)C(=O)CCC(=O)Nc2ccccn2)c1	inconclusive: 5.01 µM [activator, single point]	
Cc1cccc(C(=O)OCC(=O)c2cccc(Br)c2)c1O	inconclusive: 12.6 µM [activator, single point]	
CCOC(=O)c1cc(-c2cccc(C(F)(F)F)c2)nc2nc(SC)[nH]c(=O)c12	inactive	
CCC(=O)c1ccc(OCC(=O)Nc2ccc(N3CCCCC3)cc2)cc1		inconclusive: -60.1% [activator]
CCOc1ccc(-n2c(C)c(C(=O)O)c3cc(OC)ccc32)cc1	inconclusive: 2.51 µM [activator, full curve]	
O=C(NNC(=O)c1oc2ccccc2c1-n1cccc1)c1ccco1	inconclusive: 10 µM [activator, partial curve]	
COc1ccc(-n2cc(-c3ccccc3)c3c(N4CCOCC4)ncnc32)cc1	inactive	
CC(C)(C)NC(=O)CN(Cc1cccs1)C(=O)CNS(=O)(=O)c1ccc(F)cc1	inconclusive: 3.16 µM [activator, partial curve, poor fit]	
Cc1cccc(C)c1NC(=O)NC1(C(=O)NCC2CCCO2)CCCCC1 (stereo unspecified)	inconclusive: 3.55 µM [activator, full curve, poor fit]	

Taken from above.
Entry for `Cc1cccc(C(=O)OCC(=O)c2cccc(Br)c2)c1O` under Potency: inconclusive: 12.6 µM [activator, single point]
Entry for `Cc1cccc(C)c1NC(=O)NC1(C(=O)NCC2CCCO2)CCCCC1` (stereo unspecified) under Potency: inconclusive: 3.55 µM [activator, full curve, poor fit]

(further entries)

SMILES	Potency	activation
C=Cc1cc2c(cc1O)CCC1C2CCC2(C)C(O)CCC12 (stereo unspecified)	inactive	
CCn1c(SCC(=O)n2c(C)c(C)c3ccccc32)nnc1-c1ccco1	inactive	
COc1ccc(C(=O)NCCN2CCN(C(=O)c3ccc(OC)c(OC)c3)CC2)cc1OC	inactive	
O=c1[nH]nc(N=Nc2c(O)[nH]c3ccc(F)cc23)c(=O)[nH]1	inactive	
Cc1ccc(-c2csc(NC(=O)C3=NN(C4CCS(=O)(=O)C4)C(=O)CC3)n2)cc1 (stereo unspecified)	inconclusive: 10 µM [activator, partial curve, poor fit]	
Cc1ccc(-n2ncc(N(C)C)c(Cl)c2=O)cc1	inactive	
O=C(Nc1cccc(-c2ccc(N3CCOCC3)nn2)c1)c1ccccc1	inactive	
Cc1cccc(OCC(=O)Nc2ccc(NC(=O)c3ccco3)cc2)c1	inconclusive: 10 µM [activator, single point]	
COc1cc(-c2nn3c(COc4ccccc4)nnc3s2)cc(OC)c1OC	inconclusive: 1.26 µM [activator, partial curve, poor fit]	
Cc1ccc(C(=O)C2CCN(CC(=O)Nc3ccc(N(C)C)cc3)CC2)cc1	inactive	
CCC(N)C12CC3CC(CC(O)(C3)C1)C2 (stereo unspecified)	inconclusive: 5.01 µM [activator, single point]	
Cc1ccc(-c2csc3nc[nH]c(=S)c23)cc1	inactive	
CC1(C)Cc2cccc(OCC(=O)OCC(=O)Nc3cccc(S(N)(=O)=O)c3)c2O1	inconclusive: 2 µM [activator, partial curve, poor fit]	
CCCn1c(CN2CCN(C(=O)OCC)CC2)nc2cc(NC(=O)C(C)C)ccc21	inactive	
COc1ccccc1CNC(=O)c1ccc(Cl)c(NC2=NC3CS(=O)(=O)CC3S2)c1 (stereo unspecified)	inactive	
CCOC(=O)C1(Cc2cccc(F)c2)CCN(Cc2c(C)nn(CC)c2C)CC1	inconclusive: 2.82 µM [activator, single point]	
O=C(/C=C/c1ccc(Cl)cc1Cl)Nc1cccc(S(=O)(=O)NC2=NCCC2)c1	inactive	
O=[N+]([O-])c1ccc(P(=O)(Cc2ccccc2)c2ccccc2O)cc1 (stereo unspecified)	inactive	
COCC(=O)Nc1ccc(N2CCCC2)c(S(=O)(=O)Nc2ccccc2OC)c1	inconclusive: 5.01 µM [activator, single point]	
Cc1cc(C)c(/C([O-])=C(/C(=S)Nc2ccc(SC(F)F)cc2)[n+]2ccccc2)cc1C	inconclusive: 3.16 µM [activator, full curve, poor fit]	
CCOC(=O)C(C)Sc1nnc(Cn2c(=O)sc3ccccc32)n1-c1ccccc1 (stereo unspecified)	inconclusive: 3.55 µM [activator, single point]	
COc1ccc(OC)c(/C=N/NC(=O)c2csc3ccccc23)c1	inactive	
CC(C)(C)n1cnc2cc(NC(=O)c3ccco3)ccc21	inconclusive: 10 µM [activator, partial curve]	

Compounds shown so far that contain a CF3 group:
SMILES	Potency	activation
C/C(=N/Nc1ncc(C(F)(F)F)cc1Cl)c1ccncc1	inconclusive: 5.01 µM [activator, single point]	
CN(CC1CCCN(CCc2cccc(C(F)(F)F)c2)C1)C(=O)c1cc2ccccc2o1 (stereo unspecified)	inactive	
CCOC(=O)c1cc(-c2cccc(C(F)(F)F)c2)nc2nc(SC)[nH]c(=O)c12	inactive	
